About 2,100 (0.66%) of roughly 320,000 compounds were called active. Inconclusive means that the source gave no clear call. Such entries were picked first, then a sample of the others. The call rests on the fitted dose curve; in most records, active means well fitted inhibition curve with a large enough effect in the signal ratio, with a control signal flat (not every such curve was filed as active); inconclusive means small, poorly fitted or top-dose-only effect, or effect the other way, or a change in a side signal; inactive means flat fitted curve, though single readings scatter; the % refers to the signal ratio. A potency beside an inconclusive call is a rough fit, not a confirmed value.
Assay: qHTS Assay for Lipid Storage Modulators in Drosophila S3 Cells
Settings: BODIPY lipid droplet fluorescence, 18-24 h, cells fed with added oleic acid; lipid storage change, negative = inhibition: at 46.1 µM (top of the series) unless noted
In short: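 Drosophila S3 cells got compounds at several concentrations plus oleic acid (400 uM solution). Laser-scanning cytometry with 488 nm excitation read lipid droplets at 500-530 nm and cells at 575-640 nm. Percent activity was relative to 20 uM Triacsin C.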
On the % scale 0 is the no-effect control and ±100 the full control effect; potency means the concentration at half of the fitted maximal effect.

Compound	lipid storage change, negative = inhibition	Potency
CC(C)(Oc1ccc(Cl)cc1)C(=O)NCC1CCCO1 (stereo not drawn)	inconclusive	–
NC(=O)CN1C(=O)NC2(CCCc3ccccc32)C1=O (stereo not drawn)	–	inconclusive: 29.1 µM [activator, single point]
CC(C)(C)SC(=O)CC1NS(=O)(=O)OC2CCCCC12 (stereo not drawn)	inconclusive: -50.2%	–
C/C(Cn1nc([N+](=O)[O-])cc1C)=N\NC(=O)c1ccc(C(C)(C)C)cc1	inconclusive: 1.12%	–
Cc1c(C)c2c(OCC(=O)NCC(C)C)cc3c(c2oc1=O)CCC(C)(C)O3	–	inconclusive: 0.58 µM [activator, single point]
Cc1ccc(C(=O)COC(=O)CNC(=O)c2ccccc2)s1	inconclusive: 23.9%	–
O=C(NC1CCCCC1)c1cccnc1C(=O)O	inactive: -6.71%	–
COc1ccc(C2c3ccc(O)cc3Oc3ncn4nc(-c5ccncc5)nc4c32)cc1OC (stereo not drawn)	inconclusive: 6.68%	–
CCOC(=O)C1=C(CC)OC(N)=C(C#N)C1c1cc(OC)ccc1OC (stereo not drawn)	inconclusive: 110%	–
Cc1ccccc1C(=O)Nc1ccnn1C1CCN(Cc2c(C)n(C)c3ccccc23)CC1	inactive: -18.4%	–
CCOC(=O)Nc1nc(-c2ccc(F)cc2F)cs1	inconclusive: 1.51%	–
O=C(c1ccco1)N1CCN(S(=O)(=O)c2ccccc2)CC1	inconclusive: 0.396%	–
O=C(Nc1ccccc1C(=O)N1CCN(CCO)CC1)c1cccc([N+](=O)[O-])c1	–	inconclusive: 29.1 µM [activator, single point]
CC1(c2ccccc2)NC(=O)N(CC(=O)Nc2ccc3c(c2)OCO3)C1=O (stereo not drawn)	–	inconclusive: 16.4 µM [activator, partial curve]
CC1C2=C(CC(C)(C)CC2=O)NC2=C1C(=O)CC(C)(C)C2	inconclusive: 10%	–
Cc1ccccc1CSc1nc(C(C)(C)C)cc(=O)[nH]1	inconclusive: 28.4% [at 9.22 µM]	–
CCC(=O)N/N=C(\C)CC(=O)Nc1ccc(F)cc1	inconclusive: -2.06%	–
O=C(NNC(=O)c1ccc(Cl)cc1Cl)c1cnccn1	inconclusive: 9.24%	–
OCCNc1ncnc2c1nnn2Cc1ccccc1	–	inconclusive: 23.1 µM [falling, single point]
O=C(O)Cc1ccc(NC(=O)c2ccc(Cl)c(Cl)c2)cc1	inconclusive: 3.6%	–
Cc1ccc(S(=O)(=O)N2CCN(C(=O)c3ccnn3C)CC2)cc1C	–	inconclusive: 25.9 µM [activator, partial curve, poor fit]
COc1ccccc1CNc1ccc(N2CCCCC2)cc1	inconclusive: 4.57%	–
COc1cc2c(cc1OC)C(c1ccc(-c3ccc(Cl)c(Cl)c3)o1)=NCC2	–	inconclusive: 0.0046 µM [rising, full curve, poor fit]
OCC1(Cc2ccccc2)CCN(Cc2cc3ccccc3o2)CC1	inconclusive: -4.61%	–
Cc1ccc(C)c(C(=O)OCC(=O)Nc2cccc(S(=O)(=O)N3CCCCC3)c2)c1	inconclusive: 19.3%	–
CCOc1cccc(/C=C(/C#N)c2nc3ccccc3[nH]2)c1OCC(=O)O	–	inconclusive: 10.3 µM [activator, partial curve]

Compound	lipid storage change, negative = inhibition	Potency
CCN(CC)C(=O)CSc1nc2ccccc2o1	inconclusive: 8.68%	–
CCC(=O)Nc1sc(C(=O)OC)c(C)c1C(=O)OC	–	inconclusive: 0.461 µM [activator, full curve, poor fit]
COc1ccc(Nc2nnc(SCC(=O)NC3CCS(=O)(=O)C3)s2)cc1 (stereo not drawn)	inconclusive	–
COCCN(C(=O)Nc1ccc(OC)cc1)c1nc2ccccc2s1	inconclusive: -100%	–
O=C(NCCc1csc(-c2cccc(F)c2)n1)c1ccco1	inconclusive: -24.2%	–
CCN1C(=O)/C(=C/c2ccc(N3CCCC3)cc2)NC1=S	inconclusive: -54.6%	–
O=C(CNc1ccccc1C(=O)O)c1ccccc1	inconclusive: -6.43%	–
O=C(N/N=C/c1cc([N+](=O)[O-])ccc1O)c1cccc(N2CCCC2=O)c1	–	inconclusive: 35.5 µM [falling, single point]
NC(=O)COC(=O)c1ccc2c(c1)C(=O)N(Cc1ccco1)C2=O	inconclusive: 30.1%	–
N#C/C(=C\c1ccc(N2CCCC2)c([N+](=O)[O-])c1)c1nc2ccccc2[nH]1	inconclusive: 125%	–
CC(C)c1ccc(/C=N/NC(=O)c2ccccc2Cl)cc1	inconclusive: -3.53%	–
Nc1ccc(C(=O)OCC(=O)Nc2cc([N+](=O)[O-])ccc2F)cc1	inconclusive: 21.1%	–
COc1ccc(C(=O)NC(=S)Nc2cccnc2)cc1[N+](=O)[O-]	inconclusive: 27.1%	–
O=C(Nc1ccc(Cl)cc1)c1cccs1	inconclusive: 3.98%	–
O=C(Nc1cccc(Cl)c1)c1cc(-c2ccco2)on1	inconclusive: 199%	–
Oc1ccccc1-c1nc(NCc2ccco2)c2ccccc2n1	–	inconclusive: 16.4 µM [activator, partial curve]
COc1ccc([C@@]2(O)c3c(ccc(CC=C(C)C)c3O)NC(=O)[C@@H]2OC)cc1	inconclusive: -10.4%	–
COc1cc(/C=C/C(=O)NC(C)(C)C)ccc1OCc1ccccc1	–	active: 29.1 µM
CC1=NN(C(N)=S)C(=O)C1N=Nc1ccc(C)cc1C (stereo not drawn)	inconclusive: -22.8%	–
O=C(O)c1ccc(N=Nc2c(O)[nH]c3ccc(Br)cc23)cc1	inactive: -23.1%	–
N#Cc1nc(COc2ccc(F)cc2)oc1N1CCCC1	–	inconclusive: 2.06 µM [activator, partial curve]
CC(=O)OC1CCC2(C)C(COc3ccc4ccc(=O)oc4c3)C(C)(O)CCC2C1(C)C (stereo not drawn)	inconclusive: -0.255%	–
N#CCCN1CCN(C(=S)c2ccc(-c3ccc(Cl)c(Cl)c3)o2)CC1	inconclusive: 18.6%	–
CCOC(=O)c1ccc(NC(=O)CSc2nnc(CNC(=O)c3ccco3)o2)cc1	–	active: 3.66 µM
Cc1nc(-c2ccncc2)nc(NCCNc2ccc(C(F)(F)F)cn2)c1Cl	inconclusive: -3.57%	–
COc1cccc(NC(=O)C2CCN(Cc3cnn(-c4ccccc4)c3-n3cccc3)CC2)c1	–	inconclusive: 23.1 µM [cytotoxic, single point]

Among those listed so far, these have a thiophene ring, fused or not.
Compound	lipid storage change, negative = inhibition	Potency
Cc1ccc(C(=O)COC(=O)CNC(=O)c2ccccc2)s1	inconclusive: 23.9%	–
CCC(=O)Nc1sc(C(=O)OC)c(C)c1C(=O)OC	–	inconclusive: 0.461 µM [activator, full curve, poor fit]
O=C(Nc1ccc(Cl)cc1)c1cccs1	inconclusive: 3.98%	–

Further results follow.

Compound	lipid storage change, negative = inhibition	Potency
O=C(NCCCN1CCOCC1)c1cnccn1	inconclusive: -12.9%	–
NC1=NCc2ccccc21	–	active: 18.4 µM
CCOc1ccc(C2C=C(c3ccc(F)cc3)Nc3ncnn32)cc1 (stereo not drawn)	–	inconclusive: 1.3 µM [rising, full curve]
CC1CN(C(=O)c2ccc(CNS(=O)(=O)c3cccc(C(F)(F)F)c3)cc2)CC(C)O1 (stereo not drawn)	inconclusive: -13.5%	–
CCOc1ccc(CCNC(=O)COC(=O)Cc2ccc(OC)c(OC)c2)cc1OCC	inconclusive	–
NS(=O)(=O)c1ccc(CCNC/C=C/c2ccccc2)cc1	–	inconclusive: 3.66 µM [activator, single point]
O=C1OC(CN2CCOCC2)CN1N=Cc1ccc([N+](=O)[O-])o1 (stereo not drawn)	–	inconclusive: 29.1 µM [falling, single point]
COc1ccc(C(=O)Nc2ccccc2)cc1NC(=O)c1ccc([N+](=O)[O-])cc1	–	inconclusive: 32.6 µM [falling, single point]
CCCCCOc1ccc(C(=O)CCN2CCOCC2)cc1	–	inconclusive: 1.16 µM [falling, single point]
CCc1sc(C(=O)Nc2cccc(-n3cnnn3)c2)cc1C	–	inconclusive: 0.259 µM [activator, full curve, poor fit]
O=c1c2ccccc2oc2ccc(NCCCn3ccnc3)cc12	–	inconclusive: 29.1 µM [activator, single point]
CCC(CC)C(=O)c1c[nH]c(C(=O)N2CCN(c3ccccc3F)CC2)c1	inconclusive: 15%	–
COc1ccc(NC(=O)CNC(=O)Cn2ccc3ccccc3c2=O)c(OC)c1	–	inconclusive: 6.51 µM [activator, single point]
COc1ccccc1Cn1nnc2c(=O)[nH]c(C3CCN(C(=O)c4ccc(C)cc4)CC3)nc21	–	inconclusive: 11.6 µM [falling, partial curve, poor fit]
CC(C)c1ccc(NC2CCCN(C(=O)c3n[nH]c4c3CCC4)C2)cc1 (stereo not drawn)	–	inconclusive: 18.4 µM [falling, single point]
CCOC(=O)Cn1c(=N)n(Cc2ccccc2F)c2ccccc21	–	active: 18.4 µM
COc1ccc(NC(=O)Nc2ccc(Cc3ccncc3)cc2)c(OC)c1	–	inconclusive: 0.731 µM [rising, partial curve]
CCC(C)NC(=O)c1ccc(N2CC3CC(C2)c2cccc(=O)n2C3)c(NC(=O)c2ccc(Br)o2)c1 (stereo not drawn)	–	inconclusive: 1.46 µM [falling, partial curve]
NC1=NC2CS(=O)(=O)CC2S1 (stereo not drawn)	inconclusive: 13.5%	–
O=S(=O)(NC1CCCC1)c1cccc(S(=O)(=O)N2CCC(n3nnc4ccccc43)CC2)c1	inconclusive: -12.1%	–
Cc1ccc(S(=O)(=O)N2CCC(C(=O)OCC(=O)N3CC(=O)Nc4ccccc43)CC2)cc1	inactive: -0.226%	–
CN(Cc1ccccc1)S(=O)(=O)c1ccc2[nH]cc(C(=O)NCC3CCCO3)c(=O)c2c1 (stereo not drawn)	inconclusive: -17.4%	–
Cc1cccc(NC(=O)c2cccc(NC(=O)c3ccccc3)c2)n1	–	inconclusive: 18.4 µM [falling, single point]
CC(C)NC(=O)CSc1nncn1-c1ccccc1	inconclusive: 17.6%	–
CCOc1ccc(-c2cc(C(=O)NCCCn3ccnc3)c3ccccc3n2)cc1	–	inconclusive: 6.51 µM [activator, single point]
COc1ccc(-c2c(C#N)c(N)nc3sc(C(=O)c4ccc(C)cc4)c(N)c23)cc1	–	inconclusive: 16.4 µM [falling, single point]
